These are yes or no findings as the source states them, for the method shown. Some binding calls cover weakened binding; strength is not graded here.
Target: T1, recombinant human PlGF (human) (UniProt P49763)
T1 sequence (125I label (chloramine T method) in the tracer form, looked up): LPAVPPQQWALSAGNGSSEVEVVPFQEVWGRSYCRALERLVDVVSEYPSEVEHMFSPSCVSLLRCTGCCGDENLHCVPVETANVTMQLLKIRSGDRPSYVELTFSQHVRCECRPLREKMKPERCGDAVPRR
Assay: covalent crosslinking (BS3) with [125I]PlGF, SDS/PAGE; competed by excess unlabeled PlGF

By UniProt entry, the sequences of proteins in these tests, tags left out. Where a name states a change or a piece, a line headed by the entry shows the natural chain unless it says otherwise.
UniProt P17948: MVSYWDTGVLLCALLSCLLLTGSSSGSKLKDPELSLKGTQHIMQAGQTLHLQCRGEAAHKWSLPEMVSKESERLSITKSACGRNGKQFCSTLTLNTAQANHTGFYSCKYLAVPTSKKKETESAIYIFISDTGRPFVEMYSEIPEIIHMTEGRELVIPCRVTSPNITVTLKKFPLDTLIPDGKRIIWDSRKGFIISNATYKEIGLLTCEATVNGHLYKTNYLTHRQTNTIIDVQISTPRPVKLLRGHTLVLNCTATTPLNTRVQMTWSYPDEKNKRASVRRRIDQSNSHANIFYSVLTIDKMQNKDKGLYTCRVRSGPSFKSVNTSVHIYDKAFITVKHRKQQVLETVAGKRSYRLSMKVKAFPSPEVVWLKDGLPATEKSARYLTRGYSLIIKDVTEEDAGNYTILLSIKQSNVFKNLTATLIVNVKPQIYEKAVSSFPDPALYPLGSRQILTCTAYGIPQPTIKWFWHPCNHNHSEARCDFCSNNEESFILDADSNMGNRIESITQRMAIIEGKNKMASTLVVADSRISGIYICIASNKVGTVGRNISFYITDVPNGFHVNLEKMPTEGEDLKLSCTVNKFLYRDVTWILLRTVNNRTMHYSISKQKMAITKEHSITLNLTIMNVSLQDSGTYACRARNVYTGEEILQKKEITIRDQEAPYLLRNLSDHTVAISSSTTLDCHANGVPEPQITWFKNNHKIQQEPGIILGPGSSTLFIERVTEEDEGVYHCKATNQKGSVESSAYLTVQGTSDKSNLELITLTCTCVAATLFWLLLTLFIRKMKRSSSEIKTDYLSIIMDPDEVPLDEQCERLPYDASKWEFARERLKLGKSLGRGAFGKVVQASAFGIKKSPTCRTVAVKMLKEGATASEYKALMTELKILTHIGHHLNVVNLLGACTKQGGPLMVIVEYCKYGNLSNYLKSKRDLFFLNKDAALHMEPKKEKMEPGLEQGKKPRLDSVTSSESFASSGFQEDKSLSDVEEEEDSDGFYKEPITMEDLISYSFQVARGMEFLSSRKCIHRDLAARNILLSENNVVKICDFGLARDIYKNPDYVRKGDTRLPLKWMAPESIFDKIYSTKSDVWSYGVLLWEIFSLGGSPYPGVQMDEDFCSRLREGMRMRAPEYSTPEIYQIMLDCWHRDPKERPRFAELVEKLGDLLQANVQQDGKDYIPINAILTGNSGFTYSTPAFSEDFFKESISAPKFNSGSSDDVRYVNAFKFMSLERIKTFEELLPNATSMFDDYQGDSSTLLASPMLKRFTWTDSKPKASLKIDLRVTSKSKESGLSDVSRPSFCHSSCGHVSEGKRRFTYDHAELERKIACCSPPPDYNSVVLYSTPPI

**Q.** For “sVEGF-RI, natural soluble form of the FLT VEGF receptor, expressed by baculovirus in Sf9 insect cells (from UniProt P17948 27-656)”, which binding is on record?
**A.** binds

Reference: patent US20030120038A1
